Measured values reported in publication PMC7819943, “Rice protein-binding microarrays: a tool to detect cis-acting elements near promoter regions in rice”.
This is one part of the list.

Chains of the proteins cited; added tags and fusions are not shown.
UniProt Q0JBA9, entry or part of it: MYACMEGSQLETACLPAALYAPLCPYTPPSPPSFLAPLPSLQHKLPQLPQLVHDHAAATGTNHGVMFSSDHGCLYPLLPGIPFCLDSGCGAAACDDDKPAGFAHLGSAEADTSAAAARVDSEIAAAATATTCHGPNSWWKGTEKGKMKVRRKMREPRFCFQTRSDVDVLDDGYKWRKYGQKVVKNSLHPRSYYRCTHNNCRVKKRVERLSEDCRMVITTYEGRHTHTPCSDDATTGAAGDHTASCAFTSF

biological target: OsWRKY34 (Oryza sativa, UniProt Q0JBA9 1-250); test: protein-binding microarray (RPBM); PBS, 2% BSA, 51.3 ng/ul salmon testes DNA, 50 uM zinc acetate, 200 nM TF, 25 C, 1 h; high values mean tight binding; details: protein: recombinant; tags: N-terminal polyhistidine and DsRed monomer fusion (pET32a); label: CyDye5-dUTP incorporated in the synthesized complementary strand; 3' TTTTT single-stranded linker to array surface; dsDNA, one strand shown
Outline: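 Polyhistidine-tagged DsRed fusions of transcription factors, joined at the N-terminus, were expressed in E. coli BL21-CodonPlus and isolated on Ni–NTA. They were incubated at 200 nM for 1 h at 25 °C on a custom Agilent array, double-stranded and BSA-blocked, in PBS with 2% BSA, salmon testes DNA and 50 µM zinc acetate. The binding signal is per-feature fluorescence intensity (arbitrary units) read on an Axon 4000B scanner after washing.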

Sequence | binding signal
GCCACTGCCGCCTCGCCTCGCCTCGAGCTCCCACCGCCGCCGGAGTCACCTAGTGCAG | 9300 fluorescence intensity (a.u.)
CCAAAATTTTAAGGTGTTTGGATGATATGGCTACCACTTACGGAGTCACCTAGTGCAG | 8090 fluorescence intensity (a.u.)
AGAAGTTGTTCTTCCCATCTTGTACCATCTTATATGCACTCGGAGTCACCTAGTGCAG | 8600 fluorescence intensity (a.u.)
ATATAAGTGACTTTGAGGTTTTGCTTGCACTGTTTGATCACGGAGTCACCTAGTGCAG | 8490 fluorescence intensity (a.u.)
TCCTGTCACTCGGCCACACTTCAATCGCATCCAAAACATCCGGAGTCACCTAGTGCAG | 8890 fluorescence intensity (a.u.)
AACAGATGTATTGCACCATAATTTTGTAGCTACCTCTCAACGGAGTCACCTAGTGCAG | 9030 fluorescence intensity (a.u.)
ACCGTATCGTTGTCTGATTCGTCGATTCGTTCCATCATTACGGAGTCACCTAGTGCAG | 9330 fluorescence intensity (a.u.)
CTCTGCTCTCTCGCCATTGCCGCCGCGGCGCCGCCTCCTCCGGAGTCACCTAGTGCAG | 9210 fluorescence intensity (a.u.)
CGGAGGGAGGCGGAGGCGGTGGTGGTGGTGGTGGTGCCGGCGGAGTCACCTAGTGCAG | 12500 fluorescence intensity (a.u.)
GATAATATTCACCTGTTCTTTCAATGCCCTTTTAGCAGAACGGAGTCACCTAGTGCAG | 8510 fluorescence intensity (a.u.)
ATAAAACAAATGATCAAACGTTGAATAAAAAGTCAACGGCCGGAGTCACCTAGTGCAG | 11100 fluorescence intensity (a.u.)
GAATTTTAATTAATCACGTATTGGGTTTTTAGATGGACTCCGGAGTCACCTAGTGCAG | 9060 fluorescence intensity (a.u.)
AAAGTTCATATGGTGTTCTAACAGGAGGTTTGTAATTTGTCGGAGTCACCTAGTGCAG | 8270 fluorescence intensity (a.u.)
TATATATATATATATATATATATATTTCATATGAAACACACGGAGTCACCTAGTGCAG | 8460 fluorescence intensity (a.u.)
CCTTTTGCGTTCCATACTCAACTCATCTTGCCGAACAAACCGGAGTCACCTAGTGCAG | 8700 fluorescence intensity (a.u.)
CTTTTTCCACACCTCACTTGCTAGATCTACCACCAAAAAGCGGAGTCACCTAGTGCAG | 10500 fluorescence intensity (a.u.)
CTGATCCTTCGCCCTCGATTCGCTGCACTTGATCCGCCGCCGGAGTCACCTAGTGCAG | 9570 fluorescence intensity (a.u.)
AGCAAGTCATGACATCAAACTAGTCCATCGCATTCAAACTCGGAGTCACCTAGTGCAG | 8210 fluorescence intensity (a.u.)
CTACTACGTACTAGCATAATGCTTTGTTTTTTTCCATTACCGGAGTCACCTAGTGCAG | 8540 fluorescence intensity (a.u.)
CTCTATACCATACGCCATCTCCATCATCTCTCGATCCATCCGGAGTCACCTAGTGCAG | 11300 fluorescence intensity (a.u.)
CCGTTGACTTGGATTTGTTCCTTTTTCATTTTTTATCGTTCGGAGTCACCTAGTGCAG | 14700 fluorescence intensity (a.u.)

Sequence | binding signal
TCCAACCGCTCGATCACCGCCGGTCTGACCGGCATACACACGGAGTCACCTAGTGCAG | 10100 fluorescence intensity (a.u.)
AATTTGAATTGCATTTGTTCATTTGGCCTCCTGGTAAGTACGGAGTCACCTAGTGCAG | 8810 fluorescence intensity (a.u.)
GCTCTGCACGTGCCCTGCGGTTGCTCCATGTTGATAGTAGCGGAGTCACCTAGTGCAG | 8530 fluorescence intensity (a.u.)
TCTGCTGTATCCTTTCTTTGTTGGATTGTTTCTTCATATTCGGAGTCACCTAGTGCAG | 15600 fluorescence intensity (a.u.)
GAAATGCACGGTTCTTTCTCGTTTCTCTGGCCATTTGATTCGGAGTCACCTAGTGCAG | 10100 fluorescence intensity (a.u.)
CTGCCACTGCTAAAATATTTGTTCAAAATTTTGACTCTTTCGGAGTCACCTAGTGCAG | 8090 fluorescence intensity (a.u.)
TGGGCACAAGGGTGTTTTGTATGGTCTCCTCAGGGAAATTCGGAGTCACCTAGTGCAG | 9360 fluorescence intensity (a.u.)
TCCTATGTTTTTTTTTCTATTTCTTCATTTTTTCAATCCTCGGAGTCACCTAGTGCAG | 11400 fluorescence intensity (a.u.)
GCGGTGGGAGGCTACTGCTGAGCGGGGCGGCGGCAGGACTCGGAGTCACCTAGTGCAG | 8070 fluorescence intensity (a.u.)
TGATTGTCATGTTGACAAGCTATTGCTGTTCTTCAGTTTGCGGAGTCACCTAGTGCAG | 8580 fluorescence intensity (a.u.)
TTATCCTCTTCATTGACTCCACCTTTGCTTCCTTCTCTACCGGAGTCACCTAGTGCAG | 9670 fluorescence intensity (a.u.)
TTTCCCAACTCAATTTCCTCGATTTTTACGCACACGCTTTCGGAGTCACCTAGTGCAG | 10000 fluorescence intensity (a.u.)
TAAATCTTGACCCTTTACTGCTAGCCTCAATGCATCGATCCGGAGTCACCTAGTGCAG | 8180 fluorescence intensity (a.u.)
TTTTTTTCTTATTTTCTGTGTGTGTGTGTGTGCCTGGAATCGGAGTCACCTAGTGCAG | 8050 fluorescence intensity (a.u.)
GTGTGTTTTATTGCTTAAATATGTGAATGTCTTTTTTACACGGAGTCACCTAGTGCAG | 9270 fluorescence intensity (a.u.)
CTCACTACGAGTTTATATATATTCACATTTGCCTAAACTTCGGAGTCACCTAGTGCAG | 8110 fluorescence intensity (a.u.)
TCATTTCAAGCGCCTTTTTTTTACACATAATACGATCAAGCGGAGTCACCTAGTGCAG | 9170 fluorescence intensity (a.u.)
GAGGAGGAGCCTTAGGTAGTGGTGGATGGGGAGGAGGAGGCGGAGTCACCTAGTGCAG | 10200 fluorescence intensity (a.u.)
GATTTTGTTCATTAATATCGTGTCTGTCCATGTCCAAGGACGGAGTCACCTAGTGCAG | 9700 fluorescence intensity (a.u.)
AACAATTTTTGGGTGCTTGTTCATATTTCATGTCCATGGTCGGAGTCACCTAGTGCAG | 8860 fluorescence intensity (a.u.)
TAAAATTCTGTTCCGCCGCGTTTGCCCTCGTCAACTAATCCGGAGTCACCTAGTGCAG | 9750 fluorescence intensity (a.u.)
